Measurements as given in the supplement of paper PMC12067093, “Discovery and optimisation of a covalent ligand for TRIM25 and its application to targeted protein ubiquitination” (Chemical Science, 2025).
Some of the results follow.

Protein sequences, listed by entry. Tags and fused reporters are not part of them. Lines headed by an entry give the natural chain unless they say otherwise; changes in a name come on top.
UniProt Q7Z5K2: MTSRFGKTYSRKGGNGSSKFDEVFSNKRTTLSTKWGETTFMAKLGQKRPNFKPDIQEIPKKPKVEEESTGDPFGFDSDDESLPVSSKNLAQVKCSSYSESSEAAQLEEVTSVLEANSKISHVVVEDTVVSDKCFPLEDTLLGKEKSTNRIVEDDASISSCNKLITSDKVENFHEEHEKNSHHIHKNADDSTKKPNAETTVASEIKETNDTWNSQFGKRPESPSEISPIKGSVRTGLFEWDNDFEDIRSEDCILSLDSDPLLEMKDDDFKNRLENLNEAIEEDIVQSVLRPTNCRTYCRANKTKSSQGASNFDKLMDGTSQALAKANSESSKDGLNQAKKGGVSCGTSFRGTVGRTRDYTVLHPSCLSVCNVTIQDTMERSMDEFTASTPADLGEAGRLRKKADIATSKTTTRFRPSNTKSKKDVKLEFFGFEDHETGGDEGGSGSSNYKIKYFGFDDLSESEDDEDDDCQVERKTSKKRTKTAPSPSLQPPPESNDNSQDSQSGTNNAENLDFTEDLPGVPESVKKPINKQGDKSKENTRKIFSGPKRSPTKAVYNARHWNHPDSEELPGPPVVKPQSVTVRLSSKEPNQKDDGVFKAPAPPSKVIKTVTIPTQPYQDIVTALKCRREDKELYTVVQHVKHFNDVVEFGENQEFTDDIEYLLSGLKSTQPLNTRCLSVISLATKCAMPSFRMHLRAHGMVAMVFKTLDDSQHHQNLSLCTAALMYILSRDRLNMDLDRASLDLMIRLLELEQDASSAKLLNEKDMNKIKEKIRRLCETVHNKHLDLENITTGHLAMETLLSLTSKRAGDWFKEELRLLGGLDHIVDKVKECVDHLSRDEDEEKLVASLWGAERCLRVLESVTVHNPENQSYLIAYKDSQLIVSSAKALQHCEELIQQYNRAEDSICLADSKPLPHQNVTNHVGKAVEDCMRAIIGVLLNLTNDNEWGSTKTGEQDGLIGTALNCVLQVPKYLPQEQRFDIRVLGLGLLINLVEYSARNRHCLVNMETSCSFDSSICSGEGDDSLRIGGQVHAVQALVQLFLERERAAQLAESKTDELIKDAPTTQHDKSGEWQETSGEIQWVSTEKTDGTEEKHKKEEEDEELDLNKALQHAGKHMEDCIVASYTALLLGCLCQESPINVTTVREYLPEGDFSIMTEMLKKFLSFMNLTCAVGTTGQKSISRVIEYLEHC
UniProt P18206: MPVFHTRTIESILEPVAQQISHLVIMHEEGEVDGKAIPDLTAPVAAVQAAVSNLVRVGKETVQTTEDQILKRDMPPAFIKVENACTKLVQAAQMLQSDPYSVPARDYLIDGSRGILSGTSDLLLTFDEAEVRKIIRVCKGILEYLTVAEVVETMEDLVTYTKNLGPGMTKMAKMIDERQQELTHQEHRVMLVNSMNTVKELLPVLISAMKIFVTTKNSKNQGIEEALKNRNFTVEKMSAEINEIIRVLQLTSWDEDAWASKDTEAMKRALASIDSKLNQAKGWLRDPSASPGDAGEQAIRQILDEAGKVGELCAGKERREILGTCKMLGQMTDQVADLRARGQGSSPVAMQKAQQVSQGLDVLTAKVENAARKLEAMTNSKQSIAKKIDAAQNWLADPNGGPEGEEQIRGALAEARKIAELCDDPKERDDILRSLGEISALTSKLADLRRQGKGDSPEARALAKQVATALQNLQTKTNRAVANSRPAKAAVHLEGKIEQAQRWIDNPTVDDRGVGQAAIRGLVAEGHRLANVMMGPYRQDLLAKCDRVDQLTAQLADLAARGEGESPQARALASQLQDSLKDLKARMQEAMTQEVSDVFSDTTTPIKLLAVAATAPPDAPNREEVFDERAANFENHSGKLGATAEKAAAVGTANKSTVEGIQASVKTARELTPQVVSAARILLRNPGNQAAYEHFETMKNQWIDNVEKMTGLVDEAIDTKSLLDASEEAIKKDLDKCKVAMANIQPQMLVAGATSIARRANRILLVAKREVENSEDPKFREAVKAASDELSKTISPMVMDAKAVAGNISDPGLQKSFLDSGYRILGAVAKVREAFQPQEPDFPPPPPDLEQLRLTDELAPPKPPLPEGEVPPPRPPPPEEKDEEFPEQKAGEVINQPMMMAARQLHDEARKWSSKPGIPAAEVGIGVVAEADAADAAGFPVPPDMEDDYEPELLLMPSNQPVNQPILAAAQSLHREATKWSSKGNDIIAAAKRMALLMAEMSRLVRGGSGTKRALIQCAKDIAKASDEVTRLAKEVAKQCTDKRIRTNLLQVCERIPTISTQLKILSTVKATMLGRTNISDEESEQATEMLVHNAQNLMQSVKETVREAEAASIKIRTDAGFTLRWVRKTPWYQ
UniProt Q709C8: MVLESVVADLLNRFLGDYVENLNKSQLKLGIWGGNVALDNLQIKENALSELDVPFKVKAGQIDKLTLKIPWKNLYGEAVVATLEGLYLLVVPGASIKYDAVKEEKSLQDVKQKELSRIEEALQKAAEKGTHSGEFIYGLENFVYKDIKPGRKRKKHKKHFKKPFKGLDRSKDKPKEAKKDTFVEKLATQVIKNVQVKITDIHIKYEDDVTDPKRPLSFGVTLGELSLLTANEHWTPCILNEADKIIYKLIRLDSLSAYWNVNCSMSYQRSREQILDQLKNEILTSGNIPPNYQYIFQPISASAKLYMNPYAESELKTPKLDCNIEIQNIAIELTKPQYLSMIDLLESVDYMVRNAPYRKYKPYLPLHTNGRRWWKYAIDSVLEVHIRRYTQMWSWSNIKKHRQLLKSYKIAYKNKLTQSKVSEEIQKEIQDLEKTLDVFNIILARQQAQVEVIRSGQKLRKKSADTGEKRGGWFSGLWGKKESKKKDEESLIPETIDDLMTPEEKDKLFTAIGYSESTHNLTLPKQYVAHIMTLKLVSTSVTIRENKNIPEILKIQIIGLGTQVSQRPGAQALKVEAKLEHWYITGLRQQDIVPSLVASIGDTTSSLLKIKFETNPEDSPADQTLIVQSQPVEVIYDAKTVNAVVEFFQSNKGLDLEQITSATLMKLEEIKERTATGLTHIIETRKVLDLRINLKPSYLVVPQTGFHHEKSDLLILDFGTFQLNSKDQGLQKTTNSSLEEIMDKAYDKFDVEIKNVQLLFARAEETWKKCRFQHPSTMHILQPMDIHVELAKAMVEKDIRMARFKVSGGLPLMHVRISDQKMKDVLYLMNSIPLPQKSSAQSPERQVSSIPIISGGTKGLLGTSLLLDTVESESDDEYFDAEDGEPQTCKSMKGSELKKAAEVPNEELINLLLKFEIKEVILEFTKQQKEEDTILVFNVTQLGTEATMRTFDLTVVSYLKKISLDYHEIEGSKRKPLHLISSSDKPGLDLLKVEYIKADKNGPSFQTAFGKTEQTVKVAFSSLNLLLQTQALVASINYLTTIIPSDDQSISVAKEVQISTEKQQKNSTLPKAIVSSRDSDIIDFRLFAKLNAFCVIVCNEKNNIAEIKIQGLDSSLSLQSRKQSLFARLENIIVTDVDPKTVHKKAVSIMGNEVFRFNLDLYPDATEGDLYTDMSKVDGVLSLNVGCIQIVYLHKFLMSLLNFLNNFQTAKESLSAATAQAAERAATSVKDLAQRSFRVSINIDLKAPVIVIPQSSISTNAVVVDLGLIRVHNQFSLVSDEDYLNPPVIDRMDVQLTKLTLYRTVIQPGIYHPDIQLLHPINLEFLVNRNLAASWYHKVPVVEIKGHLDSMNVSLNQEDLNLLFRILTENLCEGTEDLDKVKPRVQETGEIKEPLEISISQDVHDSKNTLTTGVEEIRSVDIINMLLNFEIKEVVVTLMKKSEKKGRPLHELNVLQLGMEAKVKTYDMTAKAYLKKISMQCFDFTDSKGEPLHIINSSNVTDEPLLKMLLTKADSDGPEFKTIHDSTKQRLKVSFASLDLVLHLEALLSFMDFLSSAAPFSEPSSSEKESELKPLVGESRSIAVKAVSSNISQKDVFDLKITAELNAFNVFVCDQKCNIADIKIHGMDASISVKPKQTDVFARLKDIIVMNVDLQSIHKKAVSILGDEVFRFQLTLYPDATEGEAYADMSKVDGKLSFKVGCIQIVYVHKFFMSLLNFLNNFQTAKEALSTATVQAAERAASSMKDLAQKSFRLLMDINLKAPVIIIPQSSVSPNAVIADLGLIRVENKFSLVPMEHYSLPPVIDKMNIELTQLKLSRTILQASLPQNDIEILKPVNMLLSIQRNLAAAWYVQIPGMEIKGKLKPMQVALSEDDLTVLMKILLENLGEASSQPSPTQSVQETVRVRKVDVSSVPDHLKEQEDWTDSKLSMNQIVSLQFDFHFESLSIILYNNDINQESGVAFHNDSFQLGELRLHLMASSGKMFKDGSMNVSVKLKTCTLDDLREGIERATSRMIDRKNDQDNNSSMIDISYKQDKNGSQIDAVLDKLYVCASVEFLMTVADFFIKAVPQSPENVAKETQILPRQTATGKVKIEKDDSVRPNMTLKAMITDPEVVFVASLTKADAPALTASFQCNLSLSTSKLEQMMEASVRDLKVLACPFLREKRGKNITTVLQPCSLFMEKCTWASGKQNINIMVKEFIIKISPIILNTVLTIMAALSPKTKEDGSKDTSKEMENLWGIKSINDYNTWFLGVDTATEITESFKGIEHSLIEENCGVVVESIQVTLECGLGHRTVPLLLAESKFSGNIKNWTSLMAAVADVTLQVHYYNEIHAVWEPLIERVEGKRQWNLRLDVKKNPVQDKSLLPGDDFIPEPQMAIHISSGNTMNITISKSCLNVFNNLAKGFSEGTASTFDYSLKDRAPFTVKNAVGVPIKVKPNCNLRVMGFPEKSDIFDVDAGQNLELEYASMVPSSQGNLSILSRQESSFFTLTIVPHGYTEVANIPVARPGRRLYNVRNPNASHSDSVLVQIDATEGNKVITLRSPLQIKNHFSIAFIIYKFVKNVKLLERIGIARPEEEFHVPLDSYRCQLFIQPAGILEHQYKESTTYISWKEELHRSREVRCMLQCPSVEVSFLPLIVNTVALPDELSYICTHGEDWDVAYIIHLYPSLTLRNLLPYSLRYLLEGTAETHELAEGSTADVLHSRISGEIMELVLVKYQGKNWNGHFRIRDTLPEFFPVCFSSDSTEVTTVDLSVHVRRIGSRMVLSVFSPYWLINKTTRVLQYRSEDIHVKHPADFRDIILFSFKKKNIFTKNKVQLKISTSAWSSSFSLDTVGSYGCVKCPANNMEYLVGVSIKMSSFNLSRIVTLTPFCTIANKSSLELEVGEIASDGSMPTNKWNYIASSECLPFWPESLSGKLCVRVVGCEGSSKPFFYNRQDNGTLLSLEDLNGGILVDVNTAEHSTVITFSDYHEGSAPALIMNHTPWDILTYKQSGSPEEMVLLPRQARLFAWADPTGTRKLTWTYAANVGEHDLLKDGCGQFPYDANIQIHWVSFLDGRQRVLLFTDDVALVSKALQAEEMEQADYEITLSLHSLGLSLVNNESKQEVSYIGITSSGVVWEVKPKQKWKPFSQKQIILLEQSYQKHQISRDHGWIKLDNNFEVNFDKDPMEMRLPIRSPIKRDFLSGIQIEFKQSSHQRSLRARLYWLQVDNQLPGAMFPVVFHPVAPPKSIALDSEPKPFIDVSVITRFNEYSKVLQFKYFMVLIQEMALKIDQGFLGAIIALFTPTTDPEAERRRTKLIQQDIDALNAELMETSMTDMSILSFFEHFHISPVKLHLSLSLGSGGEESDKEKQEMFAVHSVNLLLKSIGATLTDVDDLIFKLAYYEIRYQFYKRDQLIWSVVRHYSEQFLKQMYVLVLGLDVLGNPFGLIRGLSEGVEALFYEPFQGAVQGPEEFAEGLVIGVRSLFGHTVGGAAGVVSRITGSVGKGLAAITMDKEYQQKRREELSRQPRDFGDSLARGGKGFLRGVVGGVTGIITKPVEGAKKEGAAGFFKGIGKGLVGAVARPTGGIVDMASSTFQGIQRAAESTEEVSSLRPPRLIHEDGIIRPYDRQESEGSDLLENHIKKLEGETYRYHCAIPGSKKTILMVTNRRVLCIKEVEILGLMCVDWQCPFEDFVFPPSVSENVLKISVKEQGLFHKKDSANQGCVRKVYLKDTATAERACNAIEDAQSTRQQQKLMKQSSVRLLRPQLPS
UniProt Q4G0F5, whole entry, looked up: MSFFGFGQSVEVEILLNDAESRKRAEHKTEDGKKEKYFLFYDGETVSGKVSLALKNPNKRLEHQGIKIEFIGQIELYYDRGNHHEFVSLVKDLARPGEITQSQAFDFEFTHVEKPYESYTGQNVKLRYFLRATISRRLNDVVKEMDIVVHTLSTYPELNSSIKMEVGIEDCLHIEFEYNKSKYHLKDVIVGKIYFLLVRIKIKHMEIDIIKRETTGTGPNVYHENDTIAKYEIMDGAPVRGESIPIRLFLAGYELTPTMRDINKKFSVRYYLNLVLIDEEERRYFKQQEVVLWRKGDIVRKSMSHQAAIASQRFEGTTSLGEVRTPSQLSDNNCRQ
UniProt Q8N0U8: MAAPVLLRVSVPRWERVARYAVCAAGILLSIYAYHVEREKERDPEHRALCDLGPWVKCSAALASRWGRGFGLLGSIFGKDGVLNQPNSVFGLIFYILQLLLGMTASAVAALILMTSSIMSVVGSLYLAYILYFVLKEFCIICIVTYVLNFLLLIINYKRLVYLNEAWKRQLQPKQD

Compound: Cc1cc(ccc1-c1ccccc1)C(=O)N1CCCN(CC1)C(=O)CCl [compound 10]
Assay: probe-labelled cysteine peptide fold change vs DMSO (competition) (log2 fold change); higher = less target engagement (more negative = stronger competition)
Details: THP-1, incubation time: 4 h
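Also: competitive profiling in live THP-1 cells: cysteine peptides tagged with an iodoacetamide desthiobiotin (IA-DTB) probe, intensity after compound treatment relative to DMSO-treated cells.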

VAPB_O95292_173_VMEECK (UniProt O95292) was tested. Which “probe-labelled cysteine peptide fold change” value (10 µM) did it give?
Its value is -0.0929.

What about the “probe-labelled cysteine peptide fold change” value (50 µM) of the same target?
The value was 0.113.

Which results are given for “WAPL_Q7Z5K2_1170_FLSFMNLTCAVGTTGQK (UniProt Q7Z5K2)”?
probe-labelled cysteine peptide fold change (10 µM): -0.173; probe-labelled cysteine peptide fold change (50 µM): -0.476

What does the source list for “VAT1_Q99536_324_AVCGFHLGYLDGEVELVSGVVAR (UniProt Q99536)”?
probe-labelled cysteine peptide fold change (10 µM): 0.0974; probe-labelled cysteine peptide fold change (50 µM): 0.151

“VPS41_P49754_102_INQISLDESGEHMGVCSEDGK (UniProt P49754)” was tested. Which “probe-labelled cysteine peptide fold change” value (10 µM) did it give?
Its value is 0.0123.

And the “probe-labelled cysteine peptide fold change” value (50 µM)?
Its value is 0.229.

Which results are given for “VIRMA_Q69YN4_557_CHFYEVLSEIKR (UniProt Q69YN4)”?
probe-labelled cysteine peptide fold change (10 µM): 0.0494; probe-labelled cysteine peptide fold change (50 µM): 0.205

Which “probe-labelled cysteine peptide fold change” value (10 µM) does the source give for “VAV2_P52735_749_KFDSLLELVEYYQCHSLK (UniProt P52735)” here?
Its value is 0.0227.

And the “probe-labelled cysteine peptide fold change” value (50 µM)?
The value was -0.0963.

For “VAV3_Q9UKW4_44_DGVLLCQLLNNLR (UniProt Q9UKW4)”, which “probe-labelled cysteine peptide fold change” value (10 µM) is on record?
The value was 0.467.

What about the “probe-labelled cysteine peptide fold change” value (50 µM) of the same target?
Its value is 0.381.

“VCL_P18206_422_IAELCDDPK (UniProt P18206)” was tested. Which “probe-labelled cysteine peptide fold change” value (10 µM) did it give?
Its value is 0.0203.

And the “probe-labelled cysteine peptide fold change” value (50 µM)?
The value was 0.663.

How did the “probe-labelled cysteine peptide fold change” value (10 µM) turn out when “VCP_P55072_209_EDEEESLNEVGYDDIGGCRK (UniProt P55072)” was run?
Its value is -0.234.

What about the “probe-labelled cysteine peptide fold change” value (50 µM) of the same target?
The value was 0.0631.

For “VPS13C_Q709C8_2906_WNYIASSECLPFWPESLSGK (UniProt Q709C8)”, which “probe-labelled cysteine peptide fold change” value (10 µM) is on record?
The value was -0.0311.

What about the “probe-labelled cysteine peptide fold change” value (50 µM) of the same target?
The value was 0.127.

With “VPS26B_Q4G0F5_334_TPSQLSDNNCRQ (UniProt Q4G0F5)” as the target, how does the “probe-labelled cysteine peptide fold change” value (10 µM) read?
Its value is -0.205.

What about the “probe-labelled cysteine peptide fold change” value (50 µM) of the same target?
The value was -0.321.

For “WAPL_Q7Z5K2_675_CLSVISLATK (UniProt Q7Z5K2)”, which “probe-labelled cysteine peptide fold change” value (10 µM) is on record?
Its value is 0.0765.

What about the “probe-labelled cysteine peptide fold change” value (50 µM) of the same target?
The value was -0.0235.

“VPS13C_Q709C8_2289_GIEHSLIEENCGVVVESIQVTLECGLGHR (UniProt Q709C8)” was tested. Which “probe-labelled cysteine peptide fold change” value (10 µM) did it give?
The value was -0.105.

What about the “probe-labelled cysteine peptide fold change” value (50 µM) of the same target?
Its value is -0.0661.

With “VPS28_Q9UK41_96_QVQGSEISSIDEFCR (UniProt Q9UK41)” as the target, how does the “probe-labelled cysteine peptide fold change” value (10 µM) read?
Its value is 0.0424.

And the “probe-labelled cysteine peptide fold change” value (50 µM)?
Its value is -0.0686.

Which results are given for “VPS4B_O75351_384_ADPNHLVDDLLTPCSPGDPGAIEMTWMDVPGDK (UniProt O75351)”?
probe-labelled cysteine peptide fold change (10 µM): 0.176; probe-labelled cysteine peptide fold change (50 µM): 0.0886

“WARS_P23381_394_QFGGNCDVDVSFMYLTFFLEDDDKLEQIRK (UniProt P23381)” was tested. Which “probe-labelled cysteine peptide fold change” value (10 µM) did it give?
Its value is -0.0218.

What about the “probe-labelled cysteine peptide fold change” value (50 µM) of the same target?
Its value is 0.043.

With “VAMP7_P51809_64_IVYLCITDDDFER (UniProt P51809)” as the target, how does the “probe-labelled cysteine peptide fold change” value (10 µM) read?
The value was 0.243.

What about the “probe-labelled cysteine peptide fold change” value (50 µM) of the same target?
Its value is 0.625.

“VPS16_Q9H269_271_QMVWCSRPR (UniProt Q9H269)” was tested. Which “probe-labelled cysteine peptide fold change” value (10 µM) did it give?
The value was 0.108.

And the “probe-labelled cysteine peptide fold change” value (50 µM)?
The value was -0.255.

With “VPS4A_Q9UN37_233_QHKPSIIFIDEVDSLCGSR (UniProt Q9UN37)” as the target, how does the “probe-labelled cysteine peptide fold change” value (10 µM) read?
The value was 0.0504.

And the “probe-labelled cysteine peptide fold change” value (50 µM)?
Its value is -0.0399.

Which results are given for “USP9X_Q93008_540_ILDYSCSQDRDTQK (UniProt Q93008)”?
probe-labelled cysteine peptide fold change (10 µM): -0.129; probe-labelled cysteine peptide fold change (50 µM): 0.0413

Which results are given for “VPS26B_Q4G0F5_334_TPSQLSDNNCR (UniProt Q4G0F5)”?
probe-labelled cysteine peptide fold change (10 µM): -0.253; probe-labelled cysteine peptide fold change (50 µM): 0.0136

Which results are given for VCL_P18206_325_EILGTCK (UniProt P18206)?
probe-labelled cysteine peptide fold change (10 µM): 0.207; probe-labelled cysteine peptide fold change (50 µM): 0.163

How did the “probe-labelled cysteine peptide fold change” value (10 µM) turn out when “UVRAG_Q9P2Y5_204_AQCAIK (UniProt Q9P2Y5)” was run?
Its value is -0.0873.

And the “probe-labelled cysteine peptide fold change” value (50 µM)?
The value was -0.0836.

With “USP9Y_O00507_1773_GDLLEGANAYHCEK (UniProt O00507)” as the target, how does the “probe-labelled cysteine peptide fold change” value (10 µM) read?
The value was 0.00151.

And the “probe-labelled cysteine peptide fold change” value (50 µM)?
Its value is -0.211.

Which results are given for “UTP6_Q9NYH9_328_CYITFCLER (UniProt Q9NYH9)”?
probe-labelled cysteine peptide fold change (10 µM): -0.197; probe-labelled cysteine peptide fold change (50 µM): -0.0538

Which results are given for “VPS13B_Q7Z7G8_1218_CSNPQVQLFYELTDIMNK (UniProt Q7Z7G8)”?
probe-labelled cysteine peptide fold change (10 µM): -0.169; probe-labelled cysteine peptide fold change (50 µM): 0.299

For “VPS29_Q9UBQ0_36_IQHILCTGNLCTK (UniProt Q9UBQ0)”, which “probe-labelled cysteine peptide fold change” value (10 µM) is on record?
Its value is -0.127.

And the “probe-labelled cysteine peptide fold change” value (50 µM)?
The value was -0.307.

Which results are given for “UXS1_Q8NBZ7_230_ACYDEGK (UniProt Q8NBZ7)”?
probe-labelled cysteine peptide fold change (10 µM): -0.116; probe-labelled cysteine peptide fold change (50 µM): 0.0502

Which “probe-labelled cysteine peptide fold change” value (10 µM) does the source give for “VPS45_Q9NRW7_359_NLLEVSEVEQELACQNDHSSALQNIK (UniProt Q9NRW7)” here?
The value was -0.15.

And the “probe-labelled cysteine peptide fold change” value (50 µM)?
Its value is 0.0098.

Which “probe-labelled cysteine peptide fold change” value (10 µM) does the source give for “VKORC1L1_Q8N0U8_58_CSAALASR (UniProt Q8N0U8)” here?
The value was -0.141.

What about the “probe-labelled cysteine peptide fold change” value (50 µM) of the same target?
The value was -0.127.

How did the “probe-labelled cysteine peptide fold change” value (10 µM) turn out when “UTP20_O75691_2388_QLAALICGLFVESEGVDFEKR (UniProt O75691)” was run?
The value was 0.315.

And the “probe-labelled cysteine peptide fold change” value (50 µM)?
Its value is -0.0875.

How did the “probe-labelled cysteine peptide fold change” value (10 µM) turn out when “WAPL_Q7Z5K2_133_CFPLEDTLLGK (UniProt Q7Z5K2)” was run?
Its value is -0.425.

And the “probe-labelled cysteine peptide fold change” value (50 µM)?
The value was -0.102.

Which results are given for “VPS29_Q9UBQ0_41_IQHILCTGNLCTK (UniProt Q9UBQ0)”?
probe-labelled cysteine peptide fold change (10 µM): -0.0356; probe-labelled cysteine peptide fold change (50 µM): -0.187

Which results are given for “WASHC5_Q12768_21_IVSCGNAIIAELLR (UniProt Q12768)”?
probe-labelled cysteine peptide fold change (10 µM): -0.116; probe-labelled cysteine peptide fold change (50 µM): 0.234

“WAC_Q9BTA9_615_VCEIQATLR (UniProt Q9BTA9)” was tested. Which “probe-labelled cysteine peptide fold change” value (10 µM) did it give?
The value was 0.222.

What about the “probe-labelled cysteine peptide fold change” value (50 µM) of the same target?
The value was 0.307.

With “VARS_P26640_381_GETTLWNPGCDHAGIATQVVVEK (UniProt P26640)” as the target, how does the “probe-labelled cysteine peptide fold change” value (10 µM) read?
Its value is -0.0563.

What about the “probe-labelled cysteine peptide fold change” value (50 µM) of the same target?
The value was -0.178.

How did the “probe-labelled cysteine peptide fold change” value (10 µM) turn out when “USP9X_Q93008_2398_CMVALFSNCPVAYQILQGNGDLK (UniProt Q93008)” was run?
Its value is 0.129.

What about the “probe-labelled cysteine peptide fold change” value (50 µM) of the same target?
The value was 0.0717.

“VRK1_Q99986_220_CHDGTIEFTSIDAHNGVAPSRR (UniProt Q99986)” was tested. Which “probe-labelled cysteine peptide fold change” value (10 µM) did it give?
Its value is -0.238.

And the “probe-labelled cysteine peptide fold change” value (50 µM)?
Its value is -0.155.

What does the source list for “WAPL_Q7Z5K2_964_TGEQDGLIGTALNCVLQVPK (UniProt Q7Z5K2)”?
probe-labelled cysteine peptide fold change (10 µM): 0.366; probe-labelled cysteine peptide fold change (50 µM): 0.213
